These are literature values, as cited in patent US5028625A, “Acid addition salt of ibuprofen and meglumine” (priority 1989, dated 1991).

The conditions of the data set: cited from earlier work.

Molecules are shown by their SMILES.

Regarding `CC(C)Cc1ccc(C(C)C(=O)O)cc1` (centres unmarked) [ibuprofen, Ibuprofen], for the setting “background statement”, the “solubility in water” value is reported as “sparingly soluble in water”. Under “water”, the ibuprofen aqueous solubility was 0.006 % weight by volume.
